Binding data for four molecules are collected here from article PMC9456343.

No constants are given. Whether binding was seen depends on the method and setting. For some of these results: Binding can be weak; no strength is given. For some of these results: In cells and extracts the contact can be indirect.

The target of assay [1] is T1, OsDMC1A (rice) (UniProt Q7GBF8).
T1 sequence: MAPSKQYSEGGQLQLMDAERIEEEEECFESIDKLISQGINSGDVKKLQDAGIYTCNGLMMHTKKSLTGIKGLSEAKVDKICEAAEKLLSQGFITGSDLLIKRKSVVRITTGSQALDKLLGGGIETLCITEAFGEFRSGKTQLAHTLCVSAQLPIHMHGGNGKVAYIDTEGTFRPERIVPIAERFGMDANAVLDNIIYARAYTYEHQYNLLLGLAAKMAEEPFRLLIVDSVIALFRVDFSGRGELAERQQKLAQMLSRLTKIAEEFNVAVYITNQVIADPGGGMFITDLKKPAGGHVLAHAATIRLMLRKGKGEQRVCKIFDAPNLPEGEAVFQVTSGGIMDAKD
In words: two-hybrid; pGBKT7 bait and pGADT7 prey in Y2H Gold yeast; selection on SD/-His-Ade-Trp-Leu medium containing X-alpha-Gal and AbA.

Assay [2] concerns the target T2, OsDMC1B (rice) (UniProt Q7GBF7).
T2 sequence: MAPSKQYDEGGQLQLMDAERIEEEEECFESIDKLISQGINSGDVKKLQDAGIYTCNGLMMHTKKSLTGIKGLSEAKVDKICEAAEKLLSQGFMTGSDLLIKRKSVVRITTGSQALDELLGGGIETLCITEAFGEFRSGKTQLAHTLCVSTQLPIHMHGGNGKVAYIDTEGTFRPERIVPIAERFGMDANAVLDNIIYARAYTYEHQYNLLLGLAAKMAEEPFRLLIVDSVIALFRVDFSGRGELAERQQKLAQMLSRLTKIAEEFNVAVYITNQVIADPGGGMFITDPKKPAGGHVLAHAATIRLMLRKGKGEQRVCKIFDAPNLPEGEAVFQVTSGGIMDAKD
Described as above.

For assay [3], the target named is T1, OsDMC1A (rice). Nature of the assay: split reporter; BiFC with pSCYNE (SCN) and pSCYCE(R) (SCC) constructs in rice protoplasts; 28 °C in the dark for 18 h; CFP signals by confocal microscopy.
The target of assay [4] is T2, OsDMC1B (rice). Described as above.
Assay [5] addresses OsFIGL1 (rice). Nature of the assay: two-hybrid; pGBKT7 bait and pGADT7 prey in Y2H Gold yeast; selection on SD/-His-Ade-Trp-Leu medium containing X-alpha-Gal and AbA.
For assay [6], the target named is OsBRCA2 (rice). The assay is described as above.
Assay [7] addresses OsFIGL1 (rice). In words: split reporter; BiFC with pSCYNE (SCN) and pSCYCE(R) (SCC) constructs in rice protoplasts; 28 °C in the dark for 18 h; CFP signals by confocal microscopy.
In assay [8] the target is OsBRCA2 (rice). The assay is described as above.

For the molecule OsRAD51A1 (rice), the binding result in the assay with OsDMC1A (rice) [1], with OsDMC1B (rice) [2], with OsDMC1A (rice) [3] and in the assay with OsDMC1B (rice) [4] was “no binding” each time.
On to OsRAD51A2 (rice), for which the binding entry with OsDMC1A (rice) [1], with OsDMC1B (rice) [2], in the assay with OsDMC1A (rice) [3] and in the assay with OsDMC1B (rice) [4] was “no binding” throughout.

B1: OsDMC1B (protein, UniProt Q7GBF7 1-344)
chain: MAPSKQYDEGGQLQLMDAERIEEEEECFESIDKLISQGINSGDVKKLQDAGIYTCNGLMMHTKKSLTGIKGLSEAKVDKICEAAEKLLSQGFMTGSDLLIKRKSVVRITTGSQALDELLGGGIETLCITEAFGEFRSGKTQLAHTLCVSTQLPIHMHGGNGKVAYIDTEGTFRPERIVPIAERFGMDANAVLDNIIYARAYTYEHQYNLLLGLAAKMAEEPFRLLIVDSVIALFRVDFSGRGELAERQQKLAQMLSRLTKIAEEFNVAVYITNQVIADPGGGMFITDPKKPAGGHVLAHAATIRLMLRKGKGEQRVCKIFDAPNLPEGEAVFQVTSGGIMDAKD
Regarding B1, the binding result with OsFIGL1 (rice) [5], with OsBRCA2 (rice) [6], with OsFIGL1 (rice) [7] and in the assay with OsBRCA2 (rice) [8] was “binds” in each case.

B2: OsDMC1A (protein, UniProt Q7GBF8 1-344)
chain: MAPSKQYSEGGQLQLMDAERIEEEEECFESIDKLISQGINSGDVKKLQDAGIYTCNGLMMHTKKSLTGIKGLSEAKVDKICEAAEKLLSQGFITGSDLLIKRKSVVRITTGSQALDKLLGGGIETLCITEAFGEFRSGKTQLAHTLCVSAQLPIHMHGGNGKVAYIDTEGTFRPERIVPIAERFGMDANAVLDNIIYARAYTYEHQYNLLLGLAAKMAEEPFRLLIVDSVIALFRVDFSGRGELAERQQKLAQMLSRLTKIAEEFNVAVYITNQVIADPGGGMFITDLKKPAGGHVLAHAATIRLMLRKGKGEQRVCKIFDAPNLPEGEAVFQVTSGGIMDAKD
As to B2, the binding result with OsFIGL1 (rice) [5], with OsBRCA2 (rice) [6], with OsFIGL1 (rice) [7] and with OsBRCA2 (rice) [8] was “binds” throughout.
